Measurements published in the supplement of paper PMC10849652.
Some of the results follow. Residues, ends and D or L forms follow the SMILES beside them. *: point of attachment. Cbz = O=C(OCc1ccccc1)*

By UniProt entry, the sequences of proteins in these tests, tags left out. Where a name states a change or a piece, a line headed by the entry shows the natural chain unless it says otherwise.
UniProt Q9Y448: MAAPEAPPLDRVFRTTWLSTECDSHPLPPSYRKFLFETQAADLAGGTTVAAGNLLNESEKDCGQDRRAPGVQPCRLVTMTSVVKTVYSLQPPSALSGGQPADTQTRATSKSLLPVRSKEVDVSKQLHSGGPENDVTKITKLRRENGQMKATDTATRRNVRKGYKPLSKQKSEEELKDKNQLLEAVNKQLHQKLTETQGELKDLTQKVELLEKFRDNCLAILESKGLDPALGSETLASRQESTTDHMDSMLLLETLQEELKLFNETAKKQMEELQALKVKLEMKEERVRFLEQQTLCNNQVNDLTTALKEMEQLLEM
UniProt P41229: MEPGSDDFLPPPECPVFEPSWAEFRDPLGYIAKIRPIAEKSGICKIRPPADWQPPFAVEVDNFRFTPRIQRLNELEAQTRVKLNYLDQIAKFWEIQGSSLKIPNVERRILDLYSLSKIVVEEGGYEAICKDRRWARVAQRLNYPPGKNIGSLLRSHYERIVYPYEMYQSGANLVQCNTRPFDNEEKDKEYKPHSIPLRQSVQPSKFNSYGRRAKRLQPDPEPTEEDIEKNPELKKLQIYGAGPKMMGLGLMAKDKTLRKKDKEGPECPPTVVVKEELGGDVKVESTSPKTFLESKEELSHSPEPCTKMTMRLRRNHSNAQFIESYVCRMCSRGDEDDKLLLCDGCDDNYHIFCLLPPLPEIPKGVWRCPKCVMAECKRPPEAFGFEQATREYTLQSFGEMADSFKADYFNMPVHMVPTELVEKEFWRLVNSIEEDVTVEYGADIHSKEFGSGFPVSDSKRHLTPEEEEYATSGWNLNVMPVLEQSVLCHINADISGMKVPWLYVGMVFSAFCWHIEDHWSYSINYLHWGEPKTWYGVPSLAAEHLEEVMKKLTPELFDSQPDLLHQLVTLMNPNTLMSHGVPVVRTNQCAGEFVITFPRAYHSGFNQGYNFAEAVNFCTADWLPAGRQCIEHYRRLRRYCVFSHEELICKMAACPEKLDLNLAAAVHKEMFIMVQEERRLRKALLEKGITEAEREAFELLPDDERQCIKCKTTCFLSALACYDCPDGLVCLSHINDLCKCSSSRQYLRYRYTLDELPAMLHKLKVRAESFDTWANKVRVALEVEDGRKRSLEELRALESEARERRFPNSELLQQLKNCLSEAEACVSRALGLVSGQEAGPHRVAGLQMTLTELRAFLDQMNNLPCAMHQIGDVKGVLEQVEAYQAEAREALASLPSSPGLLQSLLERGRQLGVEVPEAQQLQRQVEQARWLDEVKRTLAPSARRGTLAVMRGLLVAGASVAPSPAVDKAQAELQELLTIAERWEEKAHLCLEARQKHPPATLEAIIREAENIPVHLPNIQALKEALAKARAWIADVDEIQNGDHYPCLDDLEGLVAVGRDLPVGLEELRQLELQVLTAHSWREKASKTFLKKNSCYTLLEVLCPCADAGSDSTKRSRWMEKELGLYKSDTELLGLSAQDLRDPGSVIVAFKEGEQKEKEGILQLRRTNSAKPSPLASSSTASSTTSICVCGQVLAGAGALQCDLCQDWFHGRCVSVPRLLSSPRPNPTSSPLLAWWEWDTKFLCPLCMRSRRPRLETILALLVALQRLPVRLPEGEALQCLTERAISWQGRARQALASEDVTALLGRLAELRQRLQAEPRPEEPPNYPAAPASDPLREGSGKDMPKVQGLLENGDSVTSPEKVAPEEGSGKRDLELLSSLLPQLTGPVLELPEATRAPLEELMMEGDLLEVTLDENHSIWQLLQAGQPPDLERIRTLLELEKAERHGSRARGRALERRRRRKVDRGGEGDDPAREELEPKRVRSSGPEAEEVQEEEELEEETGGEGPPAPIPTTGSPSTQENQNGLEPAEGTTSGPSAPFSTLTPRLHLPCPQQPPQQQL
UniProt O00505, whole entry, looked up: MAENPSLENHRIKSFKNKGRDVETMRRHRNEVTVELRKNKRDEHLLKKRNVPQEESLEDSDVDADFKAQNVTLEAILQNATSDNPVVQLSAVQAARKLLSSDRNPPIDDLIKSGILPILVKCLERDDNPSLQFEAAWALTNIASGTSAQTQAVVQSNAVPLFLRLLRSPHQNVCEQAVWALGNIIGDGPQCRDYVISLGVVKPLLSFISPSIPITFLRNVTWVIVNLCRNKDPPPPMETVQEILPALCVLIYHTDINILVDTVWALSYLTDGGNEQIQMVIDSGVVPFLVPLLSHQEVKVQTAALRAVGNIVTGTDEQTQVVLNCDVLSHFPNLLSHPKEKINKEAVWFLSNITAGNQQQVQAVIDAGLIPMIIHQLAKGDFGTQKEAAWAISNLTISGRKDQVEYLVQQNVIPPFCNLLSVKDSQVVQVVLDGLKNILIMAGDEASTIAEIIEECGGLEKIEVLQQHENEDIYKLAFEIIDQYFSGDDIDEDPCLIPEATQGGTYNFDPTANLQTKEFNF
UniProt Q8IY47: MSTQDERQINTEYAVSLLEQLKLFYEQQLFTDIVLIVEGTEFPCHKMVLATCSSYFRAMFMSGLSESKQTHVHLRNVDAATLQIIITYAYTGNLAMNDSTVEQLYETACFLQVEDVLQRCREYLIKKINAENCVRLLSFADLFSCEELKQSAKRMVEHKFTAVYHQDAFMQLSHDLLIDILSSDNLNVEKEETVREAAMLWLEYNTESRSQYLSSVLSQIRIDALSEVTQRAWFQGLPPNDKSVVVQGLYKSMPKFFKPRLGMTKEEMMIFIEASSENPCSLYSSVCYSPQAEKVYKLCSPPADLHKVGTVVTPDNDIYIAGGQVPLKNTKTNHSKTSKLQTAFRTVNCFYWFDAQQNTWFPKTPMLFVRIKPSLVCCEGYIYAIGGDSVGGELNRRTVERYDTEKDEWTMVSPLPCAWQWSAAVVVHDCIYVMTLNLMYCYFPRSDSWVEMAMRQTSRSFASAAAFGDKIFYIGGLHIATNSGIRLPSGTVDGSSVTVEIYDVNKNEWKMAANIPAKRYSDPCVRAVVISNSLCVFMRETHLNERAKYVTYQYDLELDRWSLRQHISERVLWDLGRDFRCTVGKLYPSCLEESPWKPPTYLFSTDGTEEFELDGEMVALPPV
UniProt Q9NVX7: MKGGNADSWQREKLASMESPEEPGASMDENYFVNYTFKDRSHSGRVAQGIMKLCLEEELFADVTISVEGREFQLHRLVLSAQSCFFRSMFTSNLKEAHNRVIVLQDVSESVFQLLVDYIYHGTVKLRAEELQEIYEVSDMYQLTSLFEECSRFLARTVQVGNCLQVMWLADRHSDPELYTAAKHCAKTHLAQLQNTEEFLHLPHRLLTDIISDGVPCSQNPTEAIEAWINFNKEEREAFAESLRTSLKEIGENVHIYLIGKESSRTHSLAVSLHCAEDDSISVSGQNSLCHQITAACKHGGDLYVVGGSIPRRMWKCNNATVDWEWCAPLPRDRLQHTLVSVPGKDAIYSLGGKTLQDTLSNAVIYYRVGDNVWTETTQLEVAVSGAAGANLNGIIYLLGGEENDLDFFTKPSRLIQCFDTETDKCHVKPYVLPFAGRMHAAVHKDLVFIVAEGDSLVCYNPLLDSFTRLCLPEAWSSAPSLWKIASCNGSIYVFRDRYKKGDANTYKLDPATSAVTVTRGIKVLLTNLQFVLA
UniProt Q9ULH0: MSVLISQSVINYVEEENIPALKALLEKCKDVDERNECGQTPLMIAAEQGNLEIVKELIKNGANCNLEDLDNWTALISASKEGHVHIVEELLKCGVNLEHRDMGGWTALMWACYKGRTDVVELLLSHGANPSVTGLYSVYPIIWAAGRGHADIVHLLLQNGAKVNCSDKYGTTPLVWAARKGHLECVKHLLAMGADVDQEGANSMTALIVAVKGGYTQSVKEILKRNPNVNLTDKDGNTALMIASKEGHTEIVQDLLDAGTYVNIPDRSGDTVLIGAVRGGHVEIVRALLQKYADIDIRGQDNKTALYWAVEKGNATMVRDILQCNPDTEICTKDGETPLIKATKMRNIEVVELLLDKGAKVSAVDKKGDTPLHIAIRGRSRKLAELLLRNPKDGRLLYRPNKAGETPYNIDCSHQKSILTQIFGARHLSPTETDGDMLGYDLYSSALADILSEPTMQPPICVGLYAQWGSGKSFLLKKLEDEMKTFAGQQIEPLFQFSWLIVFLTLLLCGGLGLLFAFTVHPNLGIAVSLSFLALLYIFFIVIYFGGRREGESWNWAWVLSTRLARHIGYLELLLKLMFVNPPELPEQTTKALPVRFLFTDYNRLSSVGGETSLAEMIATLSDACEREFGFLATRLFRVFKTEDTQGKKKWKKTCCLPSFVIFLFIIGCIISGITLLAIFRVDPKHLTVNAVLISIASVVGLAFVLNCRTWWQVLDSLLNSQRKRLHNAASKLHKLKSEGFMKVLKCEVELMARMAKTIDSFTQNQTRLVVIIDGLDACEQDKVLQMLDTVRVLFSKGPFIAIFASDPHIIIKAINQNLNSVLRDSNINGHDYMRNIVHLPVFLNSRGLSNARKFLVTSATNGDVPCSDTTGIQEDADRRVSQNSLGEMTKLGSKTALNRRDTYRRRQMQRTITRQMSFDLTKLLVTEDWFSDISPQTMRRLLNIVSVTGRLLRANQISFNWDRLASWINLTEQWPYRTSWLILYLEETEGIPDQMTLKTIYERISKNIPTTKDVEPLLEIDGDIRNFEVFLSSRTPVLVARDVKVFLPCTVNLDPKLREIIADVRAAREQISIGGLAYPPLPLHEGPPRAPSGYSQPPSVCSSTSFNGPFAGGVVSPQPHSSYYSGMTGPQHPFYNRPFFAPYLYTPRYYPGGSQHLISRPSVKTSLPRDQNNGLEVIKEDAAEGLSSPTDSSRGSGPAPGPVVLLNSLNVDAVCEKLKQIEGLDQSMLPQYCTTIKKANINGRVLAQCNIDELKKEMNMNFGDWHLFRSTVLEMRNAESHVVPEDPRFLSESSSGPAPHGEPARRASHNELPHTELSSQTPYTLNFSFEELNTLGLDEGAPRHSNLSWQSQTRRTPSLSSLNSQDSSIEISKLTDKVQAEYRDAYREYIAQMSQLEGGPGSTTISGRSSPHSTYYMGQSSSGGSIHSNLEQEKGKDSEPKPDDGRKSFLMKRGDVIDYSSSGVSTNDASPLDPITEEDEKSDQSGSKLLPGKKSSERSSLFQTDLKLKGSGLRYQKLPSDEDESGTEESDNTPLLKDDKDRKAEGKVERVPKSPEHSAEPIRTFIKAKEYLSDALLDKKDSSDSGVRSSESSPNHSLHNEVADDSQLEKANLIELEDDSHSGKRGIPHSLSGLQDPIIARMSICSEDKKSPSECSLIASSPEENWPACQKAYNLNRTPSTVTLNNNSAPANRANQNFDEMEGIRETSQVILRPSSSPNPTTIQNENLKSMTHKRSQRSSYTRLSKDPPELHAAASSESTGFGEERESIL
UniProt Q9UK76: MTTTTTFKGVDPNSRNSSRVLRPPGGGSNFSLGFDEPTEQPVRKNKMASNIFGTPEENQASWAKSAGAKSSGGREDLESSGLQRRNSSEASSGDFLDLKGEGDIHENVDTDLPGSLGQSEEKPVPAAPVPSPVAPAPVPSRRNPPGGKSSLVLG
UniProt Q96SI1: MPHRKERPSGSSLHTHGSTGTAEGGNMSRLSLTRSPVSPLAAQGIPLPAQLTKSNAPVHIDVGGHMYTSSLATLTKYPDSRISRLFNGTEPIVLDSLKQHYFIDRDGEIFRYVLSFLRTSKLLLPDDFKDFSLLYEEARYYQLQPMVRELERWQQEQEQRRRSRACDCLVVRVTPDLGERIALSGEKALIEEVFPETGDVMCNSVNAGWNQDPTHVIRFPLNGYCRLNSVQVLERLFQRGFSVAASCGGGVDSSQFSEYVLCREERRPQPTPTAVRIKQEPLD
UniProt P17535: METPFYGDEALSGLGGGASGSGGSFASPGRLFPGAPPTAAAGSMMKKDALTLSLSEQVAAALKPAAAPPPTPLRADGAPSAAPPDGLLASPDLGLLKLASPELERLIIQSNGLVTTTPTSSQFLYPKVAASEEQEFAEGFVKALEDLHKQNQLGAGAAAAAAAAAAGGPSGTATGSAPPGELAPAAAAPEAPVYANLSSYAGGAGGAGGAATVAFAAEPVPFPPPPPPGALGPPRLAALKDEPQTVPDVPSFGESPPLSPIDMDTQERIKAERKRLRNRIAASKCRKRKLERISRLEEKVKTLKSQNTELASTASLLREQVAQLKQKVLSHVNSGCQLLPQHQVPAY
UniProt Q7L273: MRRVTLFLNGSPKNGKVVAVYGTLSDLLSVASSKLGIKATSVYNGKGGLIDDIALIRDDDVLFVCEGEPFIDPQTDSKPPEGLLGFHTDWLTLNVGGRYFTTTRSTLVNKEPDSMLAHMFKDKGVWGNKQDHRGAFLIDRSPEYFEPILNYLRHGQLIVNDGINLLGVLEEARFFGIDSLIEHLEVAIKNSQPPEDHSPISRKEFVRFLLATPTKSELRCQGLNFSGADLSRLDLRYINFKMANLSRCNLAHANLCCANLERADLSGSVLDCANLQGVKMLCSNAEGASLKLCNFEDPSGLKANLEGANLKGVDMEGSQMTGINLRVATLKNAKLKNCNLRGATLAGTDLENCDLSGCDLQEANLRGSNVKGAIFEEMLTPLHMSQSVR

How the values were obtained:
Assay in all cases: log2 fold change, soluble protein after heating vs DMSO (PISA); higher = thermal stabilisation; K562 cells, 10 uM, 30 min; active = over 0.2 and 3.5 SD of the protein, either way, in both replicates (recomputed)
[1] = compound: C1COCCN1CCN2C3=CC=CC=C3N=C2NC(=O)C4=CC(=CC=C4)[N+](=O)[O-] [IRAK-1-4 Inhibitor I]
Method in brief: (§1)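 K562 cells at 2×10^6 cells/mL were exposed to 10 μM compound for 30 min, then aliquots were heated for 3 min across 48°C-58°C, pooled, and extracted in PBS containing 0.5% NP-40 at 4°C. The supernatant after 21,000xg for 90 min was taken as soluble protein and measured by TMTpro 16plex LC-MS/MS with channel sums equalised. Thermal stability is reported relative to control samples, with values from duplicates. Fold changes are given on a log2 scale.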

[2] = compound: C=CC(=O)N1CCC[C@@H](n2nc(-c3ccc(Oc4ccccc4)cc3)c3c(N)ncnc32)C1 [ibrutinib]
Method in brief: as §1

[3] = compound: CC(=O)c1cnc2ccc(-c3cc(Cl)c(O)c(Cl)c3)nc2c1N[C@H]1CC[C@H](CN(C)C)CC1
Method in brief: as §1

[4] = compound: CC(C)(C)Cn1c(N)nc2ccc(-c3[nH]c(C(C)(C)C)nc3-c3ccc(F)cc3)nc21 [ralimetinib]
Method in brief: as §1

[5] = compound: CC(C)(O)CC(=O)NCCn1ccc2ncnc(Nc3ccc(Oc4cccc(C(F)(F)F)c4)c(Cl)c3)c21
Method in brief: as §1

[6] = compound: CC(C)C1=C2N=C(C=C(N2N=C1)NCC3=CC=CC=C3)NCCCCCCN
Method in brief: as §1

[7] = compound: CC(C)C[C@@H](C=O)NC(=O)[C@H](CC(C)C)NC(=O)[C@H](CC(C)C)NC(=O)OCc1ccccc1
Method in brief: as §1

[8] = compound: CC(C)N(C[C@H]1O[C@@H](n2cnc3c(N)ncnc32)[C@H](O)[C@@H]1O)[C@H]1C[C@@H](CCc2nc3cc(C(C)(C)C)ccc3[nH]2)C1 [pinometostat]
Method in brief: as §1

[9] = compound: CC1=C(C(CC(=O)N1)C2=CC=C(C=C2)C(F)(F)F)C(=O)NC3=C(C=C4C(=C3)C=NN4)F
Method in brief: as §1

[10] = compound: CC1=C(C2=C(C=C1)C(=O)C3=CC=CC=C3N2CCCN)C
Method in brief: as §1

Measured: log2 fold change

KMT2D isoform 3 (UniProt O14686)
inactive: [1] -0.048 | [2] -0.126 | [3] -0.184 | [4] 0.085 | [5] 0.047 | [6] 0.021 | [7] -0.058 | [8] 0.091 | [9] 0.009 | [10] -0.004

KLHL11 (UniProt Q9NVR0)
inactive: [1] 0.031 | [2] -0.081 | [3] 0.044 | [4] 0.137 | [5] -0.022 | [6] 0.173 | [7] -0.018 | [8] 0.078 | [9] 0.099 | [10] -0.024

KNSTRN (UniProt Q9Y448)
inactive: [1] -0.078 | [2] -0.048 | [3] -0.087 | [4] 0.078 | [5] 0.027 | [6] 0.01 | [7] 0.072 | [8] 0.116 | [9] 0.044 | [10] 0.032

KPTN (UniProt Q9Y664)
inactive: [1] 0.053 | [2] -0.009 | [3] 0.013 | [4] -0.027 | [5] -0.154 | [6] -0.083 | [7] 0.025 | [8] -0.025 | [9] -0.053 | [10] 0.036

KDM5C (UniProt P41229)
inactive: [1] 0.141 | [2] -0.194 | [3] -0.014 | [4] -0.028 | [5] -0.04 | [6] -0.15 | [7] 0.065 | [8] -0.051 | [9] -0.054 | [10] -0.097

KPNA3 (UniProt O00505)
inactive: [1] 0.016 | [2] -0.023 | [3] -0.019 | [4] -0.019 | [5] -0.028 | [6] -0.042 | [7] -0.073 | [8] -0.039 | [9] -0.003 | [10] -0.179

KLF3 (UniProt P57682)
inactive: [1] -0.015 | [2] -0.107 | [3] 0.064 | [4] -0.025 | [5] 0.054 | [6] -0.1 | [7] 0.259 | [8] 0.004 | [9] -0.143 | [10] -0.141

KBTBD2 (UniProt Q8IY47)
inactive: [1] 0.034 | [2] 0.025 | [3] -0.009 | [4] -0.015 | [5] -0.074 | [6] 0.007 | [7] -0.037 | [8] -0.001 | [9] 0.005 | [10] 0.008

KBTBD4 isoform 2 (UniProt Q9NVX7)
inactive: [1] -0.003 | [2] 0.091 | [3] -0.029 | [4] -0.04 | [5] -0.077 | [6] -0.01 | [7] 0.024 | [8] -0.028 | [9] -0.022 | [10] 0.014

JAGN1 (UniProt Q8N5M9)
inactive: [1] -0.155 | [2] 0.03 | [3] -0.002 | [4] -0.092 | [5] -0.096 | [6] -0.069 | [7] -0.111 | [8] -0.052 | [9] -0.004 | [10] 0.201

KIF5B (UniProt P33176)
inactive: [1] 0.016 | [2] -0.025 | [3] -0.033 | [4] 0.064 | [5] -0.016 | [6] 0.013 | [7] -0.021 | [8] -0.022 | [9] 0 | [10] 0.071

KCTD3 (UniProt Q9Y597)
inactive: [1] 0.03 | [2] 0.012 | [3] -0.066 | [4] -0.094 | [5] 0.023 | [6] 0.091 | [7] 0.131 | [8] 0.023 | [9] 0.012 | [10] -0.006

KIDINS220 (UniProt Q9ULH0)
inactive: [1] 0.008 | [2] 0.022 | [3] -0.045 | [4] -0.02 | [5] 0.028 | [6] 0.098 | [7] 0 | [8] 0.008 | [9] -0.03 | [10] 0.046

JPT1 (UniProt Q9UK76)
inactive: [1] 0.024 | [2] 0.025 | [3] 0.006 | [4] -0.018 | [5] 0.04 | [6] 0.041 | [7] 0.03 | [8] -0.055 | [9] 0.037 | [10] 0.027

KLC4 isoform 3 (UniProt Q9NSK0)
inactive: [1] 0.021 | [2] -0.014 | [3] 0.027 | [4] 0.033 | [5] -0.101 | [6] -0.175 | [7] -0.065 | [8] -0.011 | [9] 0.132 | [10] 0.029

KDSR (UniProt Q06136)
inactive: [1] -0.028 | [2] 0.037 | [3] 0.09 | [4] -0.02 | [5] -0.051 | [6] 0.068 | [7] -0.036 | [8] -0.045 | [9] 0.028 | [10] 0.008

JMJD1C (UniProt Q15652)
inactive: [1] -0.014 | [2] -0.073 | [3] -0.079 | [4] 0.003 | [5] -0.064 | [6] -0.013 | [7] -0.008 | [8] -0.007 | [9] -0.099 | [10] -0.004

KIAA0319L (UniProt Q8IZA0)
inactive: [1] 0.069 | [2] 0.027 | [3] -0.056 | [4] -0.027 | [5] 0.012 | [6] -0.077 | [7] 0.016 | [8] -0.012 | [9] -0.016 | [10] 0.003

IVNS1ABP (UniProt Q9Y6Y0)
inactive: [1] -0.051 | [2] 0.107 | [3] 0.038 | [4] 0.05 | [5] -0.031 | [6] -0.217 | [7] 0.153 | [8] 0.097 | [9] 0.042 | [10] 0.029

KHK isoform 2 (UniProt P50053)
inactive: [1] -0.003 | [2] 0 | [3] 0.029 | [4] 0.023 | [5] 0.016 | [6] 0.07 | [7] -0.113 | [8] 0.025 | [9] -0.014 | [10] -0.006

JAG2 (UniProt Q9Y219)
inactive: [1] 0.101 | [2] 0.047 | [3] -0.008 | [4] -0.136 | [5] 0.045 | [6] -0.026 | [7] 0.046 | [8] -0.007 | [9] -0.071 | [10] 0.027

KHSRP (UniProt Q92945)
inactive: [1] 0.058 | [2] -0.003 | [3] -0.005 | [4] -0.053 | [5] 0.052 | [6] 0.077 | [7] 0.007 | [8] -0.043 | [9] 0.04 | [10] 0.027

KCTD15 (UniProt Q96SI1)
inactive: [1] 0.015 | [2] -0.032 | [3] -0.035 | [4] -0.091 | [5] -0.016 | [6] 0.102 | [7] -0.062 | [8] -0.001 | [9] 0 | [10] 0.014

Taken from the listing (seven entries):
JPT1 (UniProt Q9UK76)
inactive: [1] 0.024 | [2] 0.025 | [3] 0.006 | [4] -0.018 | [5] 0.04 | [6] 0.041 | [7] 0.03 | [8] -0.055 | [9] 0.037 | [10] 0.027

KLC4 isoform 3 (UniProt Q9NSK0)
inactive: [1] 0.021 | [2] -0.014 | [3] 0.027 | [4] 0.033 | [5] -0.101 | [6] -0.175 | [7] -0.065 | [8] -0.011 | [9] 0.132 | [10] 0.029

KDSR (UniProt Q06136)
inactive: [1] -0.028 | [2] 0.037 | [3] 0.09 | [4] -0.02 | [5] -0.051 | [6] 0.068 | [7] -0.036 | [8] -0.045 | [9] 0.028 | [10] 0.008

JMJD1C (UniProt Q15652)
inactive: [1] -0.014 | [2] -0.073 | [3] -0.079 | [4] 0.003 | [5] -0.064 | [6] -0.013 | [7] -0.008 | [8] -0.007 | [9] -0.099 | [10] -0.004

KIAA0319L (UniProt Q8IZA0)
inactive: [1] 0.069 | [2] 0.027 | [3] -0.056 | [4] -0.027 | [5] 0.012 | [6] -0.077 | [7] 0.016 | [8] -0.012 | [9] -0.016 | [10] 0.003

IVNS1ABP (UniProt Q9Y6Y0)
inactive: [1] -0.051 | [2] 0.107 | [3] 0.038 | [4] 0.05 | [5] -0.031 | [6] -0.217 | [7] 0.153 | [8] 0.097 | [9] 0.042 | [10] 0.029

KHK isoform 2 (UniProt P50053)
inactive: [1] -0.003 | [2] 0 | [3] 0.029 | [4] 0.023 | [5] 0.016 | [6] 0.07 | [7] -0.113 | [8] 0.025 | [9] -0.014 | [10] -0.006

Continued:

KLHDC3 (UniProt Q9BQ90)
inactive: [1] 0.055 | [2] 0.029 | [3] -0.068 | [4] -0.049 | [5] -0.024 | [6] 0.074 | [7] 0.048 | [8] 0.003 | [9] 0.011 | [10] -0.029

JUND (UniProt P17535)
inactive: [1] -0.047 | [2] 0.011 | [3] -0.013 | [4] -0.018 | [5] 0.042 | [6] 0.075 | [7] 0 | [8] -0.016 | [9] 0.039 | [10] -0.008

KCTD9 (UniProt Q7L273)
inactive: [1] 0.037 | [2] 0.038 | [3] -0.123 | [4] -0.055 | [5] -0.03 | [6] 0.073 | [7] 0.088 | [8] -0.085 | [9] -0.119 | [10] -0.056

KIAA0100 (UniProt Q14667)
inactive: [1] -0.043 | [2] -0.019 | [3] -0.007 | [4] -0.095 | [5] -0.164 | [6] 0.105 | [7] 0.038 | [8] 0.023 | [9] -0.044 | [10] 0.08

KRTCAP2 isoform 2 (UniProt Q8N6L1)
inactive: [1] 0.045 | [2] 0.001 | [3] -0.01 | [4] 0.064 | [5] -0.139 | [6] -0.156 | [7] -0.141 | [8] -0.035 | [9] -0.043 | [10] 0.121

KATNB1 (UniProt Q9BVA0)
inactive: [1] -0.045 | [2] -0.041 | [3] -0.031 | [4] 0.042 | [5] -0.094 | [6] -0.06 | [7] 0.065 | [8] 0.135 | [9] -0.038 | [10] 0.002
